The experiment concerns Salmonella enterica serovar Typhimurium SL1344. As to the kind of experiment: bacterial growth OD600 after 18 h with compound and polymyxin B; higher = more bacterial growth (less inhibition). To be noted: 50 µM, Mueller-Hinton broth.

The list shows a part of the results. Values are raw readings; no control value is given beside them.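 In the initial screen, polymyxin B was used at a concentration that permeabilizes Salmonella's outer membrane but not its inner membrane. Maximum growth was set by DMSO wells with or without polymyxin B. Since plates varied, data were ranked per plate, and compounds giving the lowest OD600 advanced as hits.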

For `Cc1csc(C(C)N(C)Cc2nc(-c3ccc4ccccc4c3)oc2C)n1` (stereo not given), the “bacterial growth OD600” value (polymyxin B 0.75 µg/mL) was determined as 0.003.
On the same count and under the same terms, the result for `COCCO[C@H]1[C@H](NC(=O)C(C)C)c2ccccc2C12CCN(C(=O)/C=C/c1ccccc1)CC2` reads 0.797.
Still for that read-out and setting: as for `CSCC(=O)NC1CC(C)(C)Cc2c1cnn2-c1ccccc1C` (stereo not given), the figure is 0.257.
Take `Cc1cccc(C(=O)N(C)CC2CCCN(CCc3ccccc3F)C2)c1` (stereo not given): where the note is “polymyxin B 1 µg/mL”, the “bacterial growth OD600” value turned out to be 0.954.
In the case of `COC(=O)c1c(OCCc2ccccc2F)cc(=O)n2c1CCN(C(=O)c1ccccc1Cl)CC2`, where the note is “polymyxin B 0.75 µg/mL”, the “bacterial growth OD600” value is 0.81.
On the same count and under the same terms, as for `COc1ccc(CCNC(=O)c2oc3ccc(C)cc3c2C)cc1OC`, the figure is 0.001.
On to `CCOC(=O)C1(CCOc2ccccc2)CCN(Cc2cccc3c2OCO3)CC1`, for which the “bacterial growth OD600” value (polymyxin B 1 µg/mL) amounted to 0.66.
As to `OC(Cc1ccccc1)c1ccc2c(c1)CN(Cc1ccoc1)CCO2` (stereo not given), under “polymyxin B 0.75 µg/mL”, the “bacterial growth OD600” value amounted to 0.756.
On to `COc1ccc(OC2CCN(C3CCCC3)CC2)c(C(=O)N(C)C(C)C)c1`, for which the “bacterial growth OD600” value (polymyxin B 1 µg/mL) came out at 0.949.
Still for that read-out and setting: as for `COCc1ccc(C(=O)N2CCCC(CCC(=O)NCc3ccccc3Cl)C2)o1` (stereo not given), the figure is 0.847; as for `Cc1nnc(-c2cccc(NC(=O)C3CCCCN3C(=O)CC(C)C)c2)s1` (stereo not given), 0.932.
Take `COc1ccc(CCC2CCCN(C(=O)CN3CCCCC3=O)C2)cc1` (stereo not given): the “bacterial growth OD600” value (polymyxin B 0.75 µg/mL) is 0.817.
As to `CN(Cc1ccc(C(F)(F)F)cc1)C1CCN(c2cccc(NC(=O)c3ccncc3)c2)CC1`, the “bacterial growth OD600” value (polymyxin B 0.75 µg/mL) worked out at 0.605.
For the compound `COc1ccc(CCc2nnc(CCC(=O)N3CCN(C4CCCC4)CC3)o2)cc1`, where the note is “polymyxin B 1 µg/mL”, the “bacterial growth OD600” value stood at 0.944.
Take `CN(Cc1ccc(F)cc1)c1ccc(OCC(=O)N(Cc2cccnc2)C[C@@H]2CCC(=O)N2)nn1`: the “bacterial growth OD600” value (polymyxin B 0.75 µg/mL) worked out at 0.79.
The same measure, in the same setting: as for `COc1cc(CN2CCCC(Nc3ccc4c(c3)OCCO4)C2)c(Cl)cc1O` (stereo not given), the figure is 0.743.
As to `CN1CCN(C(=O)c2coc(COc3ccc(F)cc3)n2)CC1`, the “bacterial growth OD600” value (polymyxin B 1 µg/mL) came to 1.01.
On the same count and under the same terms, the result for `O=C(c1ccccc1C(F)(F)F)N1CCCC(Nc2ccccc2)C1` (stereo not given) reads 0.922; that for `Cc1ccc(OC2CCN(Cc3nc(Cc4cccc(F)c4)no3)CC2)cc1`, 0.509.
Still for that read-out and setting: as for `Cn1cc(CNC2CCCc3nc(-c4cccnc4)ncc32)cn1` (stereo not given), the figure is 0.927.

The values above are taken from the supplement of paper PMC12889115.
